These are yes or no findings as the source states them, for the method shown. For some assays here: In cells and extracts the contact can be indirect. For some assays here: Binding calls can cover weak binding; strength is not graded here.
Tests used:
[1] = target: truncated FGFR1 with domain 3 (D3) missing; experiment: co-immunoprecipitation with truncated FGFR1 (D3 missing)
[2] = target: truncated FGFR1 with domain 2 (D2) missing; experiment: co-immunoprecipitation with truncated FGFR1 (FIG. 9K)
EGFR = experiment: pull-down of purified proteins (Gremlin1 with EGFR), immunoblot
[3] = target: truncated FGFR1 with domain 3 (D3) missing; experiment: co-immunoprecipitation, IP: HA of truncated HA-FGFR1, +Gremlin1, immunoblot
FGFR1-D23 = experiment: as above

binding [1]: binds | binding [2]: no binding | binding (EGFR): no binding | binding [3]: binds | binding (FGFR1-D23): binds
B1: Gremlin1 (human gremlin 1, hGREM1) (ligand)
chain: KKKGSQGAIPPPDKAQHNDSEQTQSPQQPGSRNRGRGQGRGTAMPGEEVLESSQEALHVTERKYLKRDWCKTQPLKQTIHEEGCNSRTIINRFCYGQCNSFYIPRHIRKEEGSFQSCSFCKPKKFTTMMVTLNCPELQPPTKKKRVTRVKQCRCISIDLD
modifications: biotin label in the ForteBio assay (site not stated)
